Assay: peptide made by a vendor (Fmoc solid-phase peptide synthesis; Wang polystyrene resin (initial functionalization 1.2 mmol/g; 0.8 mmol/g loading); DIC/Oxyma)
Conditions: whole synthesis
[1] = TFA salt (Mpa-T7 peptide), TFA salt and acetate salt (Mpa-Br)

Mpa-His-His-His-Arg-His-Ser-Phe-OH
final HPLC purity (RP-HPLC, scale of the general procedure 45.4 mmol, TFA salt): 96.2%
crude HPLC purity (RP-HPLC, scale of the general procedure 45.4 mmol, TFA salt (Mpa-T7 peptide), TFA salt and acetate salt (Mpa-Br), run 1): 78.5%
crude HPLC purity (RP-HPLC, scale of the general procedure 45.4 mmol, TFA salt (Mpa-T7 peptide), TFA salt and acetate salt (Mpa-Br), run 2): 70.5%
isolated mass (TFA salt): 11.4 g
crude mass [1]: 31.5 g
isolated mass [1]: 6.7 g
isolated yield (net peptide, scale of the general procedure 45.4 mmol, TFA salt (Mpa-T7 peptide), TFA salt and acetate salt (Mpa-Br)): 25.8%
isolated yield (overall from resin loading step, scale of the general procedure 45.4 mmol, TFA salt): 43.7%
crude yield (resin weight gain, scale 45.4 mmol, TFA salt (Mpa-T7 peptide), TFA salt and acetate salt (Mpa-Br)): 89.1%
crude yield (scale of the general procedure 45.4 mmol, TFA salt (Mpa-T7 peptide), TFA salt and acetate salt (Mpa-Br)): 91.8%
